Test results: patent US9044520B2 (Nihon Medi-Physics Co., Ltd., priority 2011, dated 2015)

Experiment: general procedure: Fmoc solid-phase peptide synthesis; Fmoc-SAL resin (0.65 mol/g); HBTu/HOBt; DIC-HOOBt for formyl-Nle
Details: whole synthesis, 220 nm, scale of the general procedure 0.32 mmol

Row | Substance | final HPLC purity (TFA salt) [%] | final HPLC purity (trifluoroacetate) [%]
1 | formyl-Met-Leu-Phe-Nle-Tyr-DLys-ε([^19F]FB)-NH2 | 99.5 | 
2 | formyl-Nle-Leu-Phe-Nle-Tyr-DLys-DLys-DLys-DLys-ε([^19F]FB)-DLys-NH2 |  | 99.8
3 | formyl-Nle-Leu-Phe-Nle-Tyr-DLys-DLys-DLys-ε([^19F]FB)-NH2 |  | 99.3
4 | formyl-Nle-Leu-Phe-Nle-Tyr-DLys-ε([^19F]FB)-NH2 |  | 95.2
